The record followed here is patent US20220074941A1, “HSP90 COMBINATION THERAPY” (Sloan-Kettering Institute for Cancer Research, priority 2011, published 2022).

Data set [1] deals with Hsp90 complexes in K562 cell extract. Nature of the data set: Nano-LC-MS/MS of PU-beads pull-downs. Format: binding. The settings on record: protein identified in PU-beads pull-down of K562 extract, QSTAR-Elite QTof MS. In a few lines: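 Lysates pre-cleared overnight at 4 °C with control beads, then pulled down with PU-beads or control beads; eluted proteins (2% SDS boil) gel-separated and analysed by nano LC-MS/MS on a QTof. Mascot identification (p<0.05), spectral counts and sequence coverage evaluated in Scaffold.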

In data set [2] the test system is Hsp90 complexes in Mia-PaCa-2 cell extract. Nature of the data set: Nano-LC-MS/MS of PU-beads pull-downs. It counts as binding, human. The settings on record: protein identified in PU-beads pull-down of Mia-Paca 2 extract; QSTAR-Elite QTof MS. In a few lines:
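Lysates pre-cleared overnight at 4 °C with control beads underwent PU-bead pull-down; bound proteins were SDS-eluted, gel-separated, digested and analyzed by nano-LC-MS/MS on a QTof. Identifications used significance p<0.05, 0.4 Da tolerances and one missed cleavage; unique peptide (spectral) counts and sequence coverage were reported.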

B1: ILF3 (protein, UniProt Q12906 1-894, looked up)
Interleukin enhancer-binding …: MRPMRIFVNDDRHVMAKHSSVYPTQEELEAVQNMVSHTERALKAVSDWIDEQEKGSSEQAESDNMDVPPEDDSKEGAGEQKTEHMTRTLRGVMRVGLVAKGLLLKGDLDLELVLLCKEKPTTALLDKVADNLAIQLAAVTEDKYEILQSVDDAAIVIKNTKEPPLSLTIHLTSPVVREEMEKVLAGETLSVNDPPDVLDRQKCLAALASLRHAKWFQARANGLKSCVIVIRVLRDLCTRVPTWGPLRGWPLELLCEKSIGTANRPMGAGEALRRVLECLASGIVMPDGSGIYDPCEKEATDAIGHLDRQQREDITQSAQHALRLAAFGQLHKVLGMDPLPSKMPKKPKNENPVDYTVQIPPSTTYAITPMKRPMEEDGEEKSPSKKKKKIQKKEEKAEPPQAMNALMRLNQLKPGLQYKLVSQTGPVHAPIFTMSVEVDGNSFEASGPSKKTAKLHVAVKVLQDMGLPTGAEGRDSSKGEDSAEETEAKPAVVAPAPVVEAVSTPSAAFPSDATAEQGPILTKHGKNPVMELNEKRRGLKYELISETGGSHDKRFVMEVEVDGQKFQGAGSNKKVAKAYAALAALEKLFPDTPLALDANKKKRAPVPVRGGPKFAAKPHNPGFGMGGPMHNEVPPPPNLRGRGRGGSIRGRGRGRGFGGANHGGYMNAGAGYGSYGYGGNSATAGYSQFYSNGGHSGNASGGGGGGGGGSSGYGSYYQGDNYNSPVPPKHAGKKQPHGGQQKPSYGSGYQSHQGQQQSYNQSPYSNYGPPQGKQKGYNHGQGSYSYSNSYNSPGGGGGSDYNYESKFNYSGSGGRSGGNSYGSGGASYNPGSHGGYGGGSGGGSSYQGKQGGYSQSNYNSPGSGQNYSGPPSSYQSSQGGYGRNADHSMNYQYR
With B1, in data set [1], the “Number of Assigned Spectra, K562 Prep 1” value is 25 and the “Number of Assigned Spectra, K562 Prep 2” value was 16. Also, the “Number of Assigned Spectra, Mia-Paca 2” value in data set [2] is reported as 20.

B2: MCM5 (protein, UniProt P33992 2-734, looked up)
DNA replication licensing …: SGFDDPGIFYSDSFGGDAQADEGQARKSQLQRRFKEFLRQYRVGTDRTGFTFKYRDELKRHYNLGEYWIEVEMEDLASFDEDLADYLYKQPAEHLQLLEEAAKEVADEVTRPRPSGEEVLQDIQVMLKSDASPSSIRSLKSDMMSHLVKIPGIIIAASAVRAKATRISIQCRSCRNTLTNIAMRPGLEGYALPRKCNTDQAGRPKCPLDPYFIMPDKCKCVDFQTLKLQELPDAVPHGEMPRHMQLYCDRYLCDKVVPGNRVTIMGIYSIKKFGLTTSRGRDRVGVGIRSSYIRVLGIQVDTDGSGRSFAGAVSPQEEEEFRRLAALPNVYEVISKSIAPSIFGGTDMKKAIACLLFGGSRKRLPDGLTRRGDINLLMLGDPGTAKSQLLKFVEKCSPIGVYTSGKGSSAAGLTASVMRDPSSRNFIMEGGAMVLADGGVVCIDEFDKMREDDRVAIHEAMEQQTISIAKAGITTTLNSRCSVLAAANSVFGRWDETKGEDNIDFMPTILSRFDMIFIVKDEHNEERDVMLAKHVITLHVSALTQTQAVEGEIDLAKLKKFIAYCRVKCGPRLSAEAAEKLKNRYIIMRSGARQHERDSDRRSSIPITVRQLEAIVRIAEALSKMKLQPFATEADVEEALRLFQVSTLDAALSGTLSGVEGFTSQEDQEMLSRIEKQLKRRFAIGSQVSEHSIIKDFTKQKYPEHAIHKVLQLMLRRGEIQHRMQRKVLYRLK
As for B2, in data set [1], the “Number of Assigned Spectra, K562 Prep 1” value was 24 and the “Number of Assigned Spectra, K562 Prep 2” value is reported as 18. In data set [2], the “Number of Assigned Spectra, Mia-Paca 2” value is on record as 2.

B3: PICALM (protein, UniProt Q13492 2-652, looked up)
Phosphatidylinositol-binding …: SGQSLTDRITAAQHSVTGSAVSKTVCKATTHEIMGPKKKHLDYLIQCTNEMNVNIPQLADSLFERTTNSSWVVVFKSLITTHHLMVYGNERFIQYLASRNTLFNLSNFLDKSGLQGYDMSTFIRRYSRYLNEKAVSYRQVAFDFTKVKRGADGVMRTMNTEKLLKTVPIIQNQMDALLDFNVNSNELTNGVINAAFMLLFKDAIRLFAAYNEGIINLLEKYFDMKKNQCKEGLDIYKKFLTRMTRISEFLKVAEQVGIDRGDIPDLSQAPSSLLDALEQHLASLEGKKIKDSTAASRATTLSNAVSSLASTGLSLTKVDEREKQAALEEEQARLKALKEQRLKELAKKPHTSLTTAASPVSTSAGGIMTAPAIDIFSTPSSSNSTSKLPNDLLDLQQPTFHPSVHPMSTASQVASTWGDPFSATVDAVDDAIPSLNPFLTKSSGDVHLSISSDVSTFTTRTPTHEMFVGFTPSPVAQPHPSAGLNVDFESVFGNKSTNVIVDSGGFDELGGLLKPTVASQNQNLPVAKLPPSKLVSDDLDSSLANLVGNLGIGNGTTKNDVNWSQPGEKKLTGGSNWQPKVAPTTAWNAATMAPPVMAYPATTPTGMIGYGIPPQMGSVPVMTQPTLIYSQPVMRPPNPFGPVSGAQIQFM
B3: in data set [1], the “Number of Assigned Spectra, K562 Prep 1” value is listed as 1 and the “Number of Assigned Spectra, K562 Prep 2” value was found to be 7. Also, in data set [2], the “Number of Assigned Spectra, Mia-Paca 2” value is 0.

B4: PA2G4 (protein, UniProt Q9UQ80 2-394, looked up)
Proliferation-associated …: SGEDEQQEQTIAEDLVVTKYKMGGDIANRVLRSLVEASSSGVSVLSLCEKGDAMIMEETGKIFKKEKEMKKGIAFPTSISVNNCVCHFSPLKSDQDYILKEGDLVKIDLGVHVDGFIANVAHTFVVDVAQGTQVTGRKADVIKAAHLCAEAALRLVKPGNQNTQVTEAWNKVAHSFNCTPIEGMLSHQLKQHVIDGEKTIIQNPTDQQKKDHEKAEFEVHEVYAVDVLVSSGEGKAKDAGQRTTIYKRDPSKQYGLKMKTSRAFFSEVERRFDAMPFTLRAFEDEKKARMGVVECAKHELLQPFNVLYEKEGEFVAQFKFTVLLMPNGPMRITSGPFEPDLYKSEMEVQDAELKALLQSSASRKTQKKKKKKASKTAENATSGETLEENEAGD
As to B4, in data set [1], the “Number of Assigned Spectra, K562 Prep 1” value is listed as 3 and the “Number of Assigned Spectra, K562 Prep 2” value stood at 8. Moreover, in data set [2], the “Number of Assigned Spectra, Mia-Paca 2” value was 14.

B5: CYFIP1 (protein, UniProt Q7L576 1-1253, looked up)
Cytoplasmic FMR1-interacting …: MAAQVTLEDALSNVDLLEELPLPDQQPCIEPPPSSLLYQPNFNTNFEDRNAFVTGIARYIEQATVHSSMNEMLEEGQEYAVMLYTWRSCSRAIPQVKCNEQPNRVEIYEKTVEVLEPEVTKLMNFMYFQRNAIERFCGEVRRLCHAERRKDFVSEAYLITLGKFINMFAVLDELKNMKCSVKNDHSAYKRAAQFLRKMADPQSIQESQNLSMFLANHNKITQSLQQQLEVISGYEELLADIVNLCVDYYENRMYLTPSEKHMLLKVMGFGLYLMDGSVSNIYKLDAKKRINLSKIDKYFKQLQVVPLFGDMQIELARYIKTSAHYEENKSRWTCTSSGSSPQYNICEQMIQIREDHMRFISELARYSNSEVVTGSGRQEAQKTDAEYRKLFDLALQGLQLLSQWSAHVMEVYSWKLVHPTDKYSNKDCPDSAEEYERATRYNYTSEEKFALVEVIAMIKGLQVLMGRMESVFNHAIRHTVYAALQDFSQVTLREPLRQAIKKKKNVIQSVLQAIRKTVCDWETGHEPFNDPALRGEKDPKSGFDIKVPRRAVGPSSTQLYMVRTMLESLIADKSGSKKTLRSSLEGPTILDIEKFHRESFFYTHLINFSETLQQCCDLSQLWFREFFLELTMGRRIQFPIEMSMPWILTDHILETKEASMMEYVLYSLDLYNDSAHYALTRFNKQFLYDEIEAEVNLCFDQFVYKLADQIFAYYKVMAGSLLLDKRLRSECKNQGATIHLPPSNRYETLLKQRHVQLLGRSIDLNRLITQRVSAAMYKSLELAIGRFESEDLTSIVELDGLLEINRMTHKLLSRYLTLDGFDAMFREANHNVSAPYGRITLHVFWELNYDFLPNYCYNGSTNRFVRTVLPFSQEFQRDKQPNAQPQYLHGSKALNLAYSSIYGSYRNFVGPPHFQVICRLLGYQGIAVVMEELLKVVKSLLQGTILQYVKTLMEVMPKICRLPRHEYGSPGILEFFHHQLKDIVEYAELKTVCFQNLREVGNAILFCLLIEQSLSLEEVCDLLHAAPFQNILPRVHVKEGERLDAKMKRLESKYAPLHLVPLIERLGTPQQIAIAREGDLLTKERLCCGLSMFEVILTRIRSFLDDPIWRGPLPSNGVMHVDECVEFHRLWSAMQFVYCIPVGTHEFTVEQCFGDGLHWAGCMIIVLLGQQRRFAVLDFCYHLLKVQKHDGKDEIIKNVPLKKMVERIRKFQILNDEIITILDKYLKSGDGEGTPVEHVRCFQPPIHQSLASS
B5: in data set [1], the “Number of Assigned Spectra, K562 Prep 1” value is 8 and the “Number of Assigned Spectra, K562 Prep 2” value is listed as 4. Moreover, in data set [2], the “Number of Assigned Spectra, Mia-Paca 2” value is given as 4.

B6: TRIM28 (protein, UniProt Q13263 2-835, looked up)
Transcription intermediary …: AASAAAASAAAASAASGSPGPGEGSAGGEKRSTAPSAAASASASAAASSPAGGGAEALELLEHCGVCRERLRPEREPRLLPCLHSACSACLGPAAPAAANSSGDGGAAGDGTVVDCPVCKQQCFSKDIVENYFMRDSGSKAATDAQDANQCCTSCEDNAPATSYCVECSEPLCETCVEAHQRVKYTKDHTVRSTGPAKSRDGERTVYCNVHKHEPLVLFCESCDTLTCRDCQLNAHKDHQYQFLEDAVRNQRKLLASLVKRLGDKHATLQKSTKEVRSSIRQVSDVQKRVQVDVKMAILQIMKELNKRGRVLVNDAQKVTEGQQERLERQHWTMTKIQKHQEHILRFASWALESDNNTALLLSKKLIYFQLHRALKMIVDPVEPHGEMKFQWDLNAWTKSAEAFGKIVAERPGTNSTGPAPMAPPRAPGPLSKQGSGSSQPMEVQEGYGFGSGDDPYSSAEPHVSGVKRSRSGEGEVSGLMRKVPRVSLERLDLDLTADSQPPVFKVFPGSTTEDYNLIVIERGAAAAATGQPGTAPAGTPGAPPLAGMAIVKEEETEAAIGAPPTATEGPETKPVLMALAEGPGAEGPRLASPSGSTSSGLEVVAPEGTSAPGGGPGTLDDSATICRVCQKPGDLVMCNQCEFCFHLDCHLPALQDVPGEEWSCSLCHVLPDLKEEDGSLSLDGADSTGVVAKLSPANQRKCERVLLALFCHEPCRPLHQLATDSTFSLDQPGGTLDLTLIRARLQEKLSPPYSSPQEFAQDVGRMFKQFNKLTEDKADVQSIIGLQRFFETRMNEAFGDTKFSAVLVEPPPMSLPGAGLSSQELSGGPGDGP
B6: in data set [1], the “Number of Assigned Spectra, K562 Prep 1” value came to 16 and the “Number of Assigned Spectra, K562 Prep 2” value is reported as 14. In addition, the “Number of Assigned Spectra, Mia-Paca 2” value in data set [2] is listed as 4.

B7: MIF (protein, UniProt P14174 2-115, looked up)
Macrophage migration …: PMFIVNTNVPRASVPDGFLSELTQQLAQATGKPPQYIAVHVVPDQLMAFGGSSEPCALCSLHSIGKIGGAQNRSYSKLLCGLLAERLRISPDRVYINYYDMNAANVGWNNSTFA
In the case of B7, in data set [1], the “Number of Assigned Spectra, K562 Prep 1” value was found to be 3 and the “Number of Assigned Spectra, K562 Prep 2” value came to 0. Further, the “Number of Assigned Spectra, Mia-Paca 2” value in data set [2] was 25.
